Measured values taken from article PMC4717182.
These are yes or no findings as the source states them, for the method shown. Binding seen in cells or lysates may run through a third protein. Some entries that bind do so weakly or less than the wild type.

Protein sequences, listed by entry. Tags and fused reporters are not part of them.
UniProt P58801: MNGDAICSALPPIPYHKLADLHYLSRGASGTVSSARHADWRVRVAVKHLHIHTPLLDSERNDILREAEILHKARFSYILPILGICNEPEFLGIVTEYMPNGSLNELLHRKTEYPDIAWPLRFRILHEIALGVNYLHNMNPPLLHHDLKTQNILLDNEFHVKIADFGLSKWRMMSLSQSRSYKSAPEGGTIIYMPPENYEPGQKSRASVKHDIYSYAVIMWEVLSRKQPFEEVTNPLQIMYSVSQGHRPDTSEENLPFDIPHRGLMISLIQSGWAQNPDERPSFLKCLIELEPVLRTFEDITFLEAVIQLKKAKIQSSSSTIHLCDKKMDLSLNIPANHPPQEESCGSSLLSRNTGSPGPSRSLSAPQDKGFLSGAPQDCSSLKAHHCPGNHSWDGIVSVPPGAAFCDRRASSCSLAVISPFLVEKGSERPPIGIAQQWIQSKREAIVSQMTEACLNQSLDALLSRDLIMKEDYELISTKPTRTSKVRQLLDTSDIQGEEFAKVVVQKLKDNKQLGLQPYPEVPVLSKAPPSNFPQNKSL

Target: T1, CYLD (deubiquitinating enzyme), endogenous in murine bone marrow-derived macrophages (mouse (endogenous in BMDM)) (UniProt Q80TQ2)
T1 sequence: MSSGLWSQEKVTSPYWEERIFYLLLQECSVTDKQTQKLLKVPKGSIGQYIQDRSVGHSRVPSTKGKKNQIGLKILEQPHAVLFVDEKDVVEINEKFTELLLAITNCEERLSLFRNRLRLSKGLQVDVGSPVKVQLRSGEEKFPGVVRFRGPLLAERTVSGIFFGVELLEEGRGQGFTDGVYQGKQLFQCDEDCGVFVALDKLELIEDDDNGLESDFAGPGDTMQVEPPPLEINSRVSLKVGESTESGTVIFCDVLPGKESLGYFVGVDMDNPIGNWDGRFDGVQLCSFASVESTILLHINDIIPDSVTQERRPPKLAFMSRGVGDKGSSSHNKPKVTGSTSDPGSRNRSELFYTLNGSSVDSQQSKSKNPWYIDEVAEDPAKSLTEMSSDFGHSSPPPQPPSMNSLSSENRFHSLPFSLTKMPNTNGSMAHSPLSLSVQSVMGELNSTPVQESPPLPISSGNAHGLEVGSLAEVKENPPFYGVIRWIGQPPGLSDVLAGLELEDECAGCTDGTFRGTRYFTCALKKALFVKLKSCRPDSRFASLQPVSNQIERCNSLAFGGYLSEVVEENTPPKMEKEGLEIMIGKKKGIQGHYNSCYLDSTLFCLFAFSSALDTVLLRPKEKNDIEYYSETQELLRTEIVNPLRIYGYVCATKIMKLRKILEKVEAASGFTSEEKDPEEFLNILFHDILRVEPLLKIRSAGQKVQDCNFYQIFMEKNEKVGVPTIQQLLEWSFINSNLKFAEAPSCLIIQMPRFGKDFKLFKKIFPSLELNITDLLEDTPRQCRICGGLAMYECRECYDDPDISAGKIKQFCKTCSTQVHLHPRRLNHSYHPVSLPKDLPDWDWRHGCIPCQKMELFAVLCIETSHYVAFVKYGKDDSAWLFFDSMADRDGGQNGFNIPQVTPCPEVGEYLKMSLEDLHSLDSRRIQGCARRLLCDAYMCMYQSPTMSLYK
Experiment: co-IP; anti-CYLD antibody on lysates of IFN-γ stimulated, Lm-infected (MOI 5:1, 24 h) and uninfected WT and Cyld-/- BMDM; Gamma Bind G Sepharose, 4°C overnight; Western blot for CYLD and RIPK2

receptor-interacting serine/threonine kinase 2 (RIPK2), endogenous in murine bone marrow-derived macrophages (from UniProt P58801 1-539) (enzyme)
binding: binds
